Data: PMC9763021, “Comprehensive Assessment of Biomolecular Interactions of Morpholine-Based Mixed Ligand Cu(II) and Zn(II) Complexes of 2,2′-Bipyridine as Potential Anticancer and SARS-CoV-2 Agents: A Synergistic Experimental and Structure-Based Virtual Screening” (Bioinorganic Chemistry and Applications, 2022)

Test system: CT-DNA
Assay: DNA binding by cyclic voltammetry
Parameters: species or system calf thymus
Conditions: for D0, (bound) / E° (or) E1/2, (bound) / Ipa/Ipc, (bound) / ΔEP, (bound): DNA-bound; for D0, free / E° (or) E1/2, free / Ipa/Ipc, free / ΔEP, free: no DNA; for ΔEP, free: scan rate 100 mV·s^−1
Experimental: The CV titration for free substances was conducted at 10 μM at 25°C in the presence of Tris-HCl buffer solution (pH: 7.4). While CT-DNA increases (0–10 μM) in each sample solution, a shift in potential, including variations in the peak currents of anodic and cathodic sides, has been monitored.
The CV technique is one of the most important tools for investigating the DNA-complex adduct's binding mechanism. The CV properties of all test samples in the presence and absence of DNA were executed at a scan rate (v) 0.1 Vs^−1 with a potential range of +2 to −2 in a Tris-HCl (5 mM)/NaCl (50 mM) (pH = 7.2) solution. The M^1+/M^2+ redox couple is caused by complexes that reveal a single anodic and cathodic peak. […] (Figure S29 and Table 6).
ΔEP is peak-to-peak separation = (EPa − EPc); E°(or) E1/2 is denoted as formal electrode potential = 1/2 (EPa + EPc); Es°=(Eb° − Ef°)Eb° and Ef° are represented as the formal electrode potential of the M^1+/M^2+ couple in the bound and free forms, respectively. Es° = +19 mV (HL), +34 mV (1a), and +31 mV (2a). Ipa is anodic peak current, Ipc is cathodic peak current. K^1+ is binding constant of reduction process, K^2+ is binding constant of oxidation process, S is represented as binding site size of base pairs (bp) with a molecule of complex, Scan rate is 100 mV·s^−1, binding constant (Kb) values observed from the linear plots of log (1/[DNA]) vs. log (I/I0 − I) for oxidation and reduction, (I0 − IDNA)/IDNA = Cp/Cf versus [DNA] and Ip ^2 versus (Ipo ^2 −Ip ^2 )/[DNA] by methods I, II, and III, respectively.(24) DiffusioncoefficientD0=7.51×10^−5 SlopelogI0 −I/I=log DNA+logKb, where I0 and I are represented as the peak currents of the compound in the absence and presence of DNA.(25) log DNA=logI0 −I/I+log1/Kb log1/DNA=logI/I0−I+logKb, (26) I0 −I/I=KbDNA, (27) I0 −I/I=Cb/Cf, where Cf and Cb are denoted as the free substance concentration and DNA-interacted compound, respectively. (29) was obtained by comparing equations (27) and (28).(28) Cb/Cf=KbDNA, (29) Cb/Cf=Kbfreebasrpairs/S , (30) Cb/Cf=KbDNA/2 S +1.
S is denoted as binding site size (bp), and Kb are estimated from (31) with the help of S = (intercept/4)^1/2 and (Kb = 2S (slope/intercept), respectively. Nernst equations are as follows:(31) Es°=Eb°−Ef°=0.0591 /n logKred/Koxi, (32) Kred/Koxi=Ant. log nEb°−Ef°/0.0591.
E 1/2 or Eb° and Ef° are the formal electrode potentials of the M^1+/M^2+ couple in their bound and free forms, respectively.(33) Ip 2 =1/KbDNAIp0 2 −Ip 2 +Ip0 2 −DNA, where Ipo and Ip are denoted as the peak currents of the complexes (1–3) in the absence and presence of DNA.(34) Ipa=2.69×10^5 n^3/2 α^1/2 AC0 ∗D0 1/2 v^1/2 , (35) Ipa=13314.7D0 1/2 v^1/2 , where Ipa is denoted as the anodic peak current in amperes, n is represented as the number of electrons participating in the redox (M^1+/M^2+) process (n = 1), charge transfer coefficient (or) activation coefficient (α)≈0.5 for quasireversible systems, which also calculated from Bard–Faulkner relation(35a) α=47.7/EPa−EP/2.
C0^∗ ⟶ Bulk concentration of the compound, A is denoted as the cross-sectional area of the working electrode (glassy carbon) in cm^2 (A∼0.07 cm^2), D0 is denoted as diffusion coefficient (cm^2 s^−1) of the M^1+/M^2+ couple in the free and bound forms, respectively, and v is denoted as the potential scan rate at 0.1 Volt·s^−1. While the substances often bind to deoxyribonucleic acid through intercalation, the peak potential shifts in a positive direction. When the compounds bind to deoxyribonucleic acid via minor or major grooves or electrostatic attractions, the peak potential shifts occur in a negative direction. […]

SMILES | D0, (bound) | E° (or) E1/2, (bound) | Ipa/Ipc, (bound) | ΔEP, (bound) | D0, free | E° (or) E1/2, free | Ipa/Ipc, free | ΔEP, free
[Cu+2].[O-]c1ccccc1N=Cc1ccc(N2CCOCC2)cc1.[O-]c1ccccc1N=Cc1ccc(N2CCOCC2)cc1.c1ccc(-c2ccccn2)nc1 [(1a), [Cu(L)2(bpy)]] | 4.3266 × 10^−5 cm^2·s^−1 | 0.7398 V | 0.2031 | 0.2807 V | 4.9799 × 10^−5 cm^2·s^−1 | 0.7054 V | 1.2653 | 0.4352 V
[O-]c1ccccc1N=Cc1ccc(N2CCOCC2)cc1.[O-]c1ccccc1N=Cc1ccc(N2CCOCC2)cc1.[Zn+2].c1ccc(-c2ccccn2)nc1 [(2a), [Zn(L)2(bpy)]] | 3.6257 × 10^−5 cm^2·s^−1 | 0.5719 V | 0.5000 | 0.2965 V | 3.9665 × 10^−5 cm^2·s^−1 | 0.5406 V | 1.8999 | 0.4819 V
Oc1ccccc1N=Cc1ccc(N2CCOCC2)cc1 [(HL), 2-(4-morpholinobenzylideneamino)phenol] | 2.5809 × 10^−5 cm^2·s^−1 | 0.3680 V | 1.3424 | 0.8890 V | 2.8570 × 10^−5 cm^2·s^−1 | 0.3490 V | 1.4295 | 0.7420 V
